No constants are given. Whether binding was seen depends on the method and setting. In cells and extracts the contact can be indirect. Some results given as binding are weak or reduced against the parent protein; the word gives no strength.
Molecular target: Flag-M2-tagged EIF3F (eukaryotic translation initiation factor 3F) (human) (UniProt O00303)
Test: co-IP; Dynabeads protein A coated with 1 µg EIF3F or STAT3 antibody; total proteins of A549-EIF3F cells extracted with RIPA buffer; controls: purified IgG, beads without antibody

Sequences of proteins named here, by UniProt entry; tags and fusion partners are left off.
UniProt O00303: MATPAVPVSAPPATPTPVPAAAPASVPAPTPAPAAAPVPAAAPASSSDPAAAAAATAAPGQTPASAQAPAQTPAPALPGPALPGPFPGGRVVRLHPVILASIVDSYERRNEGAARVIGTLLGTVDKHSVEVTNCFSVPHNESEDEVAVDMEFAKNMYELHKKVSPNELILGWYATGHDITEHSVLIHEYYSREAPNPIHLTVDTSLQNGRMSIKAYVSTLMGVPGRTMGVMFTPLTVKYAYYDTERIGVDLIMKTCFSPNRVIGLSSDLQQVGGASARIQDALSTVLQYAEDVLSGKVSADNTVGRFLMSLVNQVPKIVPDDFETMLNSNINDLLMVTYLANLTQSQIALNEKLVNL
UniProt P40763: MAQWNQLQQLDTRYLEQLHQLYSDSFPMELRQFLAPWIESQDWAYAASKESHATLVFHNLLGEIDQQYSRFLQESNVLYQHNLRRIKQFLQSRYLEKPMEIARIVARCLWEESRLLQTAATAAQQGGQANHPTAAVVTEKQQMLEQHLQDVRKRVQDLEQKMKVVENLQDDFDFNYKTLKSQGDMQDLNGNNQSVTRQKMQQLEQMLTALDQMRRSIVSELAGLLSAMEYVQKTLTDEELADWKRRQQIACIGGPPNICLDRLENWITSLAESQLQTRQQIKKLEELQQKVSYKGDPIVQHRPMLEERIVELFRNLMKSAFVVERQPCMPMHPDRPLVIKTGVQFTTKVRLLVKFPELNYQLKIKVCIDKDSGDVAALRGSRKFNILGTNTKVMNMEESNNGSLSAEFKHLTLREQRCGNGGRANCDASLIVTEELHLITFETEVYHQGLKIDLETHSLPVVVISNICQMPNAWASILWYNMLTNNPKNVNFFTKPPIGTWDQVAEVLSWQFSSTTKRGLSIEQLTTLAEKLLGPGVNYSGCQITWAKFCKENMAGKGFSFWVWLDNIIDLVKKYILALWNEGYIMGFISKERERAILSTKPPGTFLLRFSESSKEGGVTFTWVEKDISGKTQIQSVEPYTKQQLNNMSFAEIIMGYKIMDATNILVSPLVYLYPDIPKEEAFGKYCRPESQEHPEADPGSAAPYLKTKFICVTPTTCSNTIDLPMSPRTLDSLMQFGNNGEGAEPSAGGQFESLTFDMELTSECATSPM

binding: binds
Substance: Signal transducer and activator of transcription 3 (from UniProt P40763 1-770)

— PMC6962096
